PubChem BioAssay AID1259276 | Sanger Institute, 2017

Purpose: 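Find kinases whose silencing cuts viability alone or combined with BYL719, cetuximab or trametinib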 (primary screen)
Cells: human C2BBe1 colorectal cancer cells
Knock-down reagent: siRNA pool against human genes
Treatment: DMSO vehicle, or one anchor drug: BYL719 at 1 µM, cetuximab at 5 µg/ml, or trametinib at 10 nM; exposure length not stated
Read-out: 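Viability after knock-down relative to non-targeting siRNA controls, averaged across replicates, given as ratio and control-derived robust z-score, with per-drug synergy scores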
Direction: viability robust z-score, siRNA alone and viability vs control, siRNA alone: higher = more viable cells after knock-down; synergy score with BYL719: higher = stronger combined killing with BYL719; synergy score with cetuximab: higher = stronger combined killing with cetuximab; synergy score with trametinib: higher = stronger combined killing with trametinib
Active means: 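a siRNA pool tested without drug is essential if its viability robust z-score falls under -3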
Calls: active = essential (siRNA alone); inactive = no change (siRNA alone)
Shown is one part, drawn at random, of 794 reagents. 24 of all reagents (3%) count as active. 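Calls come only from the siRNA-alone arm; drug synergy scores do not affect them.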 Viability is capped at 1. The record does not give: the amount of reagent, the time to read-out.

| gene symbol | viability robust z-score, siRNA alone | viability vs control, siRNA alone | synergy score with BYL719 | synergy score with cetuximab | synergy score with trametinib | call |
| --- | --- | --- | --- | --- | --- | --- |
| TBX3 (T-box transcription factor 3) | 0.472 | 1 | -0.0166 | -0.0115 | -0.0667 | inactive |
| ATP23 | 0.472 | 1 | -0.128 | -0.0115 | -0.0667 | inactive |
| MYLK3 (myosin light chain kinase 3) | -0.203 | 0.957 | -0.0705 | -0.0535 | 0.164 | inactive |
| XYLB (xylulokinase) | 0.472 | 1 | -0.0182 | -0.0115 | -0.0667 | inactive |
| CDKN2D (cyclin dependent kinase inhibitor 2D) | -2.87 | 0.789 | 0.0621 | 0.00372 | -0.0659 | inactive |
| MAP2K5 (mitogen-activated protein kinase kinase 5) | 0.472 | 1 | -0.142 | -0.0115 | -0.0667 | inactive |
| STK38L (serine/threonine kinase 38 like) | -2.85 | 0.791 | 0.0488 | -0.141 | -0.13 | inactive |
| MAP4K3 (mitogen-activated protein kinase kinase kinase kinase 3) | 0.472 | 1 | -0.0955 | -0.0115 | 0.0765 | inactive |
| GRK2 (G protein-coupled receptor kinase 2) | -0.0307 | 0.968 | -0.118 | -0.0428 | -0.0514 | inactive |
| ARID1A (AT-rich interaction domain 1A) | 0.472 | 1 | 0.0274 | 0.0548 | -0.0651 | inactive |
| BRWD1 (bromodomain and WD repeat domain containing 1) | 0.472 | 1 | -0.018 | 0.0136 | 0.019 | inactive |
| PBK (PDZ binding kinase) | -0.291 | 0.952 | -0.183 | -0.059 | -0.112 | inactive |
| CDK4 (cyclin dependent kinase 4) | 0.472 | 1 | -0.0674 | -0.0115 | -0.0667 | inactive |
| PIK3CG | -1.78 | 0.858 | -0.264 | -0.152 | -0.193 | inactive |
| PIK3R1 (phosphoinositide-3-kinase regulatory subunit 1) | -0.126 | 0.962 | -0.105 | -0.0487 | -0.102 | inactive |
| MAP2K4 (mitogen-activated protein kinase kinase 4) | 0.472 | 1 | 0.0748 | -0.0115 | -0.0667 | inactive |
| TEX14 (testis expressed 14, intercellular bridge forming factor) | -0.957 | 0.91 | -0.0672 | -0.00968 | 0.00234 | inactive |
| TTBK1 (tau tubulin kinase 1) | -3.59 | 0.744 | -0.225 | -0.0196 | -0.209 | active |
| SKAP1 (src kinase associated phosphoprotein 1) | 0.472 | 1 | -0.0147 | -0.0115 | -0.0584 | inactive |
| MAPK14 (mitogen-activated protein kinase 14) | 0.169 | 0.981 | 0.141 | 0.0526 | 0.0283 | inactive |
| PGK1 (phosphoglycerate kinase 1) | 0.472 | 1 | -0.00412 | -0.0115 | -0.0667 | inactive |

Records above marked active (1):
| gene symbol | viability robust z-score, siRNA alone | viability vs control, siRNA alone | synergy score with BYL719 | synergy score with cetuximab | synergy score with trametinib | call |
| --- | --- | --- | --- | --- | --- | --- |
| TTBK1 (tau tubulin kinase 1) | -3.59 | 0.744 | -0.225 | -0.0196 | -0.209 | active |

More reagents:
| gene symbol | viability robust z-score, siRNA alone | viability vs control, siRNA alone | synergy score with BYL719 | synergy score with cetuximab | synergy score with trametinib | call |
| --- | --- | --- | --- | --- | --- | --- |
| RSKR (ribosomal protein S6 kinase related) | 0.472 | 1 | -0.106 | -0.0115 | -0.0667 | inactive |
| BUB1 (BUB1 mitotic checkpoint serine/threonine kinase) | -0.79 | 0.92 | -0.129 | -0.0621 | -0.141 | inactive |
| EPHA6 (EPH receptor A6) | 0.35 | 0.992 | 0.419 | 0.306 | 0.235 | inactive |
| KCNH8 (potassium voltage-gated channel subfamily H member 8) | -3.38 | 0.757 | -0.222 | -0.252 | -0.294 | active |
| CSNK1D (casein kinase 1 delta) | 0.472 | 1 | -0.0457 | 0.165 | 0.0099 | inactive |
| DNMT3A (DNA methyltransferase 3 alpha) | 0.472 | 1 | -0.0685 | -0.0115 | -0.0667 | inactive |
| MAST2 (microtubule associated serine/threonine kinase 2) | 0.472 | 1 | 0.047 | -0.0115 | -0.0667 | inactive |
| CLK3 (CDC like kinase 3) | 0.472 | 1 | -0.0665 | 0.0131 | -0.0667 | inactive |
| PHKG1 (phosphorylase kinase catalytic subunit gamma 1) | 0.472 | 1 | -0.061 | -0.0115 | -0.0667 | inactive |
| PTPN11 (protein tyrosine phosphatase non-receptor type 11) | 0.472 | 1 | -0.0999 | -0.0115 | -0.0667 | inactive |
| SRPK1 (SRSF protein kinase 1) | 0.472 | 1 | 0.0715 | 0.0552 | -0.0667 | inactive |
| CAMK2N1 (calcium/calmodulin dependent protein kinase II inhibitor 1) | 0.472 | 1 | 0.295 | -0.0115 | -0.0667 | inactive |
| CKMT2 (creatine kinase, mitochondrial 2) | 0.472 | 1 | 0.105 | 0.266 | -0.0667 | inactive |
| DMPK (DM1 protein kinase) | 0.472 | 1 | -0.142 | 0.102 | -0.0667 | inactive |
| TNIK (TRAF2 and NCK interacting kinase) | 0.472 | 1 | -0.142 | 0.00759 | -0.0667 | inactive |
| PI4K2B (phosphatidylinositol 4-kinase type 2 beta) | 0.471 | 1 | 0.333 | 0.0842 | 0.0405 | inactive |
| SBK1 (SH3 domain binding kinase 1) | 0.472 | 1 | -0.0636 | -0.0115 | 0.204 | inactive |
| PDGFRA (platelet derived growth factor receptor alpha) | 0.472 | 1 | 0.0849 | -0.0115 | -0.0667 | inactive |
| PKN3 (protein kinase N3) | 0.472 | 1 | 0.0374 | 0.0924 | -0.0667 | inactive |
| UCKL1 (uridine-cytidine kinase 1 like 1) | 0.472 | 1 | 0.235 | -0.0115 | -0.0667 | inactive |
| STK17A (serine/threonine kinase 17a) | -0.175 | 0.959 | 0.285 | -0.0236 | -0.0647 | inactive |
| SYK (spleen associated tyrosine kinase) | 0.472 | 1 | 0.141 | 0.172 | 0.125 | inactive |
| AAK1 (AP2 associated kinase 1) | 0.472 | 1 | -0.0654 | 0.175 | 0.0879 | inactive |
| AXIN2 (axin 2) | 0.472 | 1 | -0.142 | 0.0332 | -0.0667 | inactive |
| CAMK2B (calcium/calmodulin dependent protein kinase II beta) | 0.472 | 1 | -0.142 | -0.0115 | -0.0667 | inactive |
| ITPK1 (inositol-tetrakisphosphate 1-kinase) | 0.472 | 1 | -0.0552 | 0.0164 | -0.0667 | inactive |
| SOS2 (SOS Ras/Rho guanine nucleotide exchange factor 2) | 0.472 | 1 | -0.0355 | -0.0115 | -0.0667 | inactive |
| PRAG1 (PEAK1 related, kinase-activating pseudokinase 1) | 0.472 | 1 | 0.0749 | -0.0115 | -0.0667 | inactive |
| SIK2 (salt inducible kinase 2) | 0.472 | 1 | -0.142 | -0.0115 | -0.0667 | inactive |
